In patent US8143307B2, “Benzothiophen-2-carbonylguanidine derivatives, preparation thereof, and pharmaceutical composition containing the same” (Korea Research Institute of Chemical Technology, priority 2004, dated 2012):
Values joined by “and” are separate entries in the source; they are usually repeats but may differ in a detail not shown here. Equal entries are not always repeated. For some of these results: The name of at least one read-out is uncertain. Some of these results come from one statement about several compounds together. For some of these results: At least one structure is not confirmed: it was looked up by name or label, or the drawing left a doubt.

The compounds below were run on isolated ischemic rat heart (assay: Cardioprotective effect in isolated ischemic rat heart model (Langendorff)). Conditions: 10 μM.
Protocol: Male rats (300 450 g, the Korea Research Institute of Chemical Technology, Experimental Animal Lab) were anesthetized by intraperitoneal injection with sodium pentobarbital at a dose of 100 mg/kg and were intravenously administered with heparine at a dose of 1000 U/kg, followed by the excision of the heart. In detail, a tracheotomy was performed and a tracheal cannula (PE 240) was inserted into the trachea for subsequent artificial ventilation with room air using a rodent ventilator. […] A catheter tip manometer connected to a latex balloon filled with a mixture of ethanol and distilled water (1:1 v/v) was inserted via an incision in the left atrium into the left ventricle, and the intraventricular pressure thereof transmitted to the latex balloon was measured isovolumetrically with a transducer and recorded on a recording system (Linearcorder mark 8 WR 3500) with the aid of an amplifier (Plugsys bridge amplifier). After stabilizing the heart for 15 min, the balloon volume was adjusted to create a left ventricular end-diastolic pressure (LVEDP) of 5 mmHg during the initial baseline period. The volume of the balloon was maintained until the end of the experiment. Baseline heart contraction function, spontaneous heart rate (HR) and coronary flow (CF) were determined from the left ventricular contraction interval. The left ventricular developed pressure (LVDP), which is regarded as an index of contractile function of the isolated heart, was calculated by subtracting left ventricular end-diastolic pressure (LVEDP) from left ventricular peak systolic pressure (LVSP). In contrast to the heart in the body, the Langendorff heart cannot be measured for cardiac output and thus, RPP (rate-pressure product), which is an important indirect indicator for cardiac performance, was calculated by multiplying heart rate (HR) by LVDP. Throughout the experiment, the temperature of the heart was maintained constant by […] in a 37° C. physiological solution to which 95% O2/5% CO2 was continuously supplied. The heart thus stabilized was perfursed for 10 min with a solution of the compounds of the invention or control drugs in DMSO (dimethylsulfoxide) diluted with HBS (final DMSO conc. 0.04%), or with the solvent only (a negative control; 0.04% DMSO) and then measured again for contractile function, heart rate (HR) and coronary flow (CF). The supply of perfusates was completely stopped for 30 min in order to induce global ischemia in the heart, followed by reperfusion for 30 min. The indices (LVDP, HR, LVEDP, and CF) were measured again. After the reperfusion, the total level of lactate dehydrogenase (LDH) in the reperfusates was measured using a kit and taken as an index of ischemic myocardial injury. A negative control group was treated with the solvent only while cariporide was used as a positive control.
For `CS(=O)(=O)O.Cc1ccc2sc(C(=O)N=C(N)N)cc2c1Br` [Example 45, (4-Bromo-5-Methylbenzothiophene-2-Carbonyl)Guanidine Methanesulfonate], the “protective effects against ischemic/reperfusion heart injury” value was “significant protective effects”. For `CC(C)c1cccc2sc(C(=O)N=C(N)N)cc12.CS(=O)(=O)O` [Example 38, (4-Isopropylbenzothiophene-2-Carbonyl)Guanidine Methanesulfonate], the “protective effects against ischemic/reperfusion heart injury” value was “significant protective effects”. For `CS(=O)(=O)O.Cc1cccc2sc(C(=O)N=C(N)N)cc12` [Example 35, (4-Methylbenzothiophene-2-Carbonyl)Guanidine Methanesulfonate], the “protective effects against ischemic/reperfusion heart injury” value was “significant protective effects”. In the case of `CS(=O)(=O)O.NC(N)=NC(=O)c1cc2c(C(F)(F)F)cccc2s1` [Example 43, (4-Trifluoromethylbenzothiophene-2-Carbonyl)Guanidine Methanesulfonate], the “protective effects against ischemic/reperfusion heart injury” value is reported as “significant protective effects”. For `C=Cc1cccc2sc(C(=O)N=C(N)N)cc12.CS(=O)(=O)O` [Example 36, (4-Vinylbenzothiophene-2-Carbonyl)Guanidine Methanesulfonate], the “protective effects against ischemic/reperfusion heart injury” value was “significant protective effects”. For `CS(=O)(=O)O.NC(N)=NC(=O)c1cc2c(F)cccc2s1` [Example 33, (4-Fluorobenzothiophene-2-Carbonyl)Guanidine Methanesulfonate], the “protective effects against ischemic/reperfusion heart injury” value was “significant protective effects”. In the case of `CS(=O)(=O)O.NC(N)=NC(=O)c1cc2c(Br)cccc2s1` [Example 1, (4-Bromobenzothiophene-2-Carbonyl)Guanidine Methanesulfonate], the “protective effects against ischemic/reperfusion heart injury” value is reported as “significant protective effects”. `CS(=O)(=O)O.NC(N)=NC(=O)c1cc2c([N+](=O)[O-])cccc2s1` [Example 39, (4-Nitrobenzothiophene-2-Carbonyl)Guanidine Methanesulfonate] was tested, and the “protective effects against ischemic/reperfusion heart injury” value was “significant protective effects”. For `CS(=O)(=O)O.Cc1ccc2sc(C(=O)N=C(N)N)cc2c1C` [Example 47, (4,5-Dimethylbenzothiophene-2-Carbonyl)Guanidine Methanesulfonate], the “protective effects against ischemic/reperfusion heart injury” value was “significant protective effects”. `N=C(N)NC(=O)c1cc2c(I)cccc2s1` [Example 34, (4-Iodobenzothiophene-2-Carbonyl)Guanidine Methanesulfonate] was tested, and the “protective effects against ischemic/reperfusion heart injury” value was “significant protective effects”. In the case of `CS(=O)(=O)O.NC(N)=NC(=O)c1cc2c(Cl)cccc2s1` [Example 32, (4-Chlorobenzothiophene-2-Carbonyl)Guanidine Methanesulfonate], the “protective effects against ischemic/reperfusion heart injury” value is reported as “significant protective effects”. In the case of `CCc1cccc2sc(C(=O)N=C(N)N)cc12.CS(=O)(=O)O` [Example 37, (4-Ethylbenzothiophene-2-Carbonyl)Guanidine Methanesulfonate], the “protective effects against ischemic/reperfusion heart injury” value is reported as “significant protective effects”. With `CS(=O)(=O)O.N#Cc1cccc2sc(C(=O)N=C(N)N)cc12` [Example 42, (4-Cyanobenzothiophene-2-Carbonyl)Guanidine Methanesulfonate] the “protective effects against ischemic/reperfusion heart injury” value was “significant protective effects”.

Same assay, conditions: 10 μM, 30 min global ischemia, 30 min reperfusion, Methanesulfonate
`CS(=O)(=O)O.N#Cc1cccc2sc(C(=O)N=C(N)N)cc12` [Example 42, (4-Cyanobenzothiophene-2-Carbonyl)Guanidine Methanesulfonate] was tested, and the “RPP (rate-pressure product (LVDP × HR) % relative to the value before ischemia induction)” value was 82.3% and 82.4%.

Each compound was assayed on in vivo ischemic rat heart model (assay: Cardioprotective effect on in vivo ischemic rat heart model (coronary occlusion/reperfusion, infarct size)). Conditions: 0.1 mg/kg intravenous, 45 min occlusion, 90 min reperfusion.
Protocol: The cardioprotective effect of the benzothiophen-2-carbonylguanidine derivatives according to the present invention in in vivo ischemic hearts was judged with regard to their antischemic effects (myocardiac infarction reduction) on rats as follows.
Each male rat (300˜450 g, the Korea Research Institute of Chemical Technology, Experimental Animal Lab) was anesthetized by intraperitoneal injection with sodium pentobarbital at a dose of 75 mg/kg. Tracheotomy was performed and a tube was inserted into the trachea for subsequent artificial ventilation with a stroke volume of 10 ml/kg and a respiratory rate of 60 breaths/min. […] Subsequently, rats were continuously measured for mean arterial blood pressure and heart rate HR throughout the experimental time period using a Statham P23XL pressure transducer (Grass Ins., Mass., USA) and an ECG/RATE Coupler (Hugo Sachs Electronic, Germany), respectively, with all continuous changes thereof recorded by Graphtec Linearcorder WR 3310 (Hugo Sachs Electronic). […]
The coronary artery was reoccluded in the same manner as described above, followed by the intravenous injection of 2 ml of 1% Evans blue. […] The image of each of the heart slices was captured using a Hi-scope, a compact vision system, and analyzed for blue-stained normal areas and non-stained areas with an image analyzing program (Image Pro Plus). […]
For `CS(=O)(=O)O.Cc1ccc2sc(C(=O)N=C(N)N)cc2c1C#N` [Example 48, (4-Cyano-5-Methylbenzothiophene-2-Carbonyl)Guanidine Methanesulfonate], the “Myocardiac infarction rate (IS/AAR, %)” value was “less than 50%”. In the case of `CS(=O)(=O)O.Cc1ccc2sc(C(=O)N=C(N)N)cc2c1C` [Example 47, (4,5-Dimethylbenzothiophene-2-Carbonyl)Guanidine Methanesulfonate], the “Myocardiac infarction rate (IS/AAR, %)” value is reported as “less than 50%”.
